Measurements reported in PubChem BioAssay AID504786 (Drosophila RNAi Screening Center, 2011).
Assay: 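Fly genes required for HIF-dependent transcription when hypoxia is mimicked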 (primary screen). System: Drosophila S2 cells with a stable HIF luciferase reporter. Knock-down reagent: long dsRNA against Drosophila genes, about 0.2 µg dsRNA per well of a 384-well plate. Timing: three days of knock-down, then 20 h of DFO before reading. Treatment: desferrioxamine (DFO) at 100 µM, an iron chelator that mimics hypoxia, for 20 h. Detection: 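HIF reporter luminescence in cells given 100 µM DFO for 20 h, using the mouse ldh-a hypoxia-response element, scored as per-plate z-scores; higher means greater loss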. Scale: z-score: higher = stronger loss of HIF reporter signal.
In all, the deposit lists about 21,000 reagents; this is a random part of those with a known target gene and a result. 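Primary screen; positive scores mean lost reporter signal, so the sign may be inverted from the usual convention.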 Reagents against one gene are numbered here. A plus sign joins genes that one reagent is predicted to hit. Not all columns of the deposit are shown.

Ugt35B1 (UDP-glycosyltransferase family 35 member B1) — z-score, replicate 1 = -0.4
Tab2 (TAK1-associated binding protein 2) — z-score, replicate 1 = -0.3
CG17977 — z-score, replicate 1 = -0.3
lncRNA:CR32658 (long non-coding RNA:CR32658) — z-score, replicate 1 = -0.3
CG11596 — z-score, replicate 1 = -0.2
DNAlig1 (DNA ligase 1) — z-score, replicate 1 = -0.3
Burs (Bursicon) — z-score, replicate 1 = -0.2
Ir76a (Ionotropic receptor 76a) — z-score, replicate 1 = -0.4
BthD (BthD selenoprotein) — z-score, replicate 1 = 0
CG31189 — z-score, replicate 1 = -0.5
zfh2 (Zn finger homeodomain 2) — z-score, replicate 1 = 2.1
mRpL17 (mitochondrial ribosomal protein L17) — z-score, replicate 1 = 1.2
Mtpalpha (Mitochondrial trifunctional protein alpha subunit) — z-score, replicate 1 = -0.1
shep (alan shepard) #1 — z-score, replicate 1 = -0.7
shep (alan shepard) #2 — z-score, replicate 1 = -0.5
shep (alan shepard) #3 — z-score, replicate 1 = -0.3

The list goes on (3 carried over from the part before).
shep (alan shepard) #1 — z-score, replicate 1 = -0.7
shep (alan shepard) #2 — z-score, replicate 1 = -0.5
shep (alan shepard) #3 — z-score, replicate 1 = -0.3
Cp19 (Chorion protein 19) — z-score, replicate 1 = -0.3
subdued — z-score, replicate 1 = -0.2
Nepl8 (Neprilysin-like 8) — z-score, replicate 1 = -0.1
drpr (draper) #1 — z-score, replicate 1 = -0.1
drpr (draper) #2 — z-score, replicate 1 = -0.3
Obp58c (Odorant-binding protein 58c) — z-score, replicate 1 = -0.3
sala (spalt-adjacent) — z-score, replicate 1 = -0.2
Ir60a (Ionotropic receptor 60a) — z-score, replicate 1 = -0.2
CG13040 — z-score, replicate 1 = -0.2
Inx7 (Innexin 7) — z-score, replicate 1 = -0.3
Esp (Epidermal stripes and patches) — z-score, replicate 1 = -0.2
sw + Sdic4 + Sdic3 + 2 more — z-score, replicate 1 = -0.4
cbt (cabut) — z-score, replicate 1 = -0.3
CG15337 — z-score, replicate 1 = -0.3
mRpL50 (mitochondrial ribosomal protein L50) — z-score, replicate 1 = -0.2
tamo — z-score, replicate 1 = -0.2
CG6847 #1 — z-score, replicate 1 = -0.2
CG6847 #2 — z-score, replicate 1 = -0.4
Or46a (Odorant receptor 46a) #1 — z-score, replicate 1 = -0.3
Or46a (Odorant receptor 46a) #2 — z-score, replicate 1 = -0.3
Rpt4R (Regulatory particle triple-A ATPase 4-related) — z-score, replicate 1 = -0.2
tx (retired record) — z-score, replicate 1 = 0.1
CG10597 — z-score, replicate 1 = 0.1
cyr (cypher) #1 — z-score, replicate 1 = -0.2
cyr (cypher) #2 — z-score, replicate 1 = -0.3
cyr (cypher) #3 — z-score, replicate 1 = -0.1
